In ChEMBL document CHEMBL3769309, “Design, synthesis and biological evaluation of bisthiazole-based trifluoromethyl ketone derivatives as potent HDAC inhibitors with improved cellular efficacy” (Eur J Med Chem, 2016) one finds IC50 data, which are given here for 2 compounds.

Protein sequences, listed by entry. Tags and fused reporters are not part of them. Lines headed by an entry give the natural chain unless they say otherwise; changes in a name come on top.
UniProt P56524: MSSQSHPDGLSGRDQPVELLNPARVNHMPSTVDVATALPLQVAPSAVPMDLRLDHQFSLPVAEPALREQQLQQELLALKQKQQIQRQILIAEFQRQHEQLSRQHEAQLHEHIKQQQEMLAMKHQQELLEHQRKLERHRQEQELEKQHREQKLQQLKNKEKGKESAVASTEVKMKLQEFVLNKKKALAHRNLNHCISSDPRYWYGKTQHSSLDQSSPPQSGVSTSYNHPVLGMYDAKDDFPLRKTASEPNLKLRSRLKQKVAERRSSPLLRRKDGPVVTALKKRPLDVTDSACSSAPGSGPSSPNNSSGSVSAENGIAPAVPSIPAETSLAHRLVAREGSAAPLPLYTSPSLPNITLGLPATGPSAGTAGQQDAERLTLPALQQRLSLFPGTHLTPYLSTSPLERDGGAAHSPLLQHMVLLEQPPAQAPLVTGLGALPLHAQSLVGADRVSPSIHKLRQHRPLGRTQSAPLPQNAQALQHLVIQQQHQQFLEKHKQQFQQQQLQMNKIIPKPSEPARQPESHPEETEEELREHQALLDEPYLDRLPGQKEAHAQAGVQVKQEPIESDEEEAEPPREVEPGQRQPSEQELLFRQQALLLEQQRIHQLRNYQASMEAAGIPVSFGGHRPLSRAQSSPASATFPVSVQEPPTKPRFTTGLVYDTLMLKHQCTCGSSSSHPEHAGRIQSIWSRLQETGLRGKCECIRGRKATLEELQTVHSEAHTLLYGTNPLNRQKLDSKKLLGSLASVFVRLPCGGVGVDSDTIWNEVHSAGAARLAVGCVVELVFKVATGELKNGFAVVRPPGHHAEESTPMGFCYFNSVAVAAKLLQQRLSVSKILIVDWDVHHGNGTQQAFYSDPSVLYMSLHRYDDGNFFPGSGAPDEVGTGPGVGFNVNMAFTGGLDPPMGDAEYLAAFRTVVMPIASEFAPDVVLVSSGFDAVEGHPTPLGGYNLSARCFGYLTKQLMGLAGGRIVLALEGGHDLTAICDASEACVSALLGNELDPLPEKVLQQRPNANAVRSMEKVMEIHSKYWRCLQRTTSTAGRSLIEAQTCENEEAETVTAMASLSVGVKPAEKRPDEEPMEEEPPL
UniProt Q13547, whole entry: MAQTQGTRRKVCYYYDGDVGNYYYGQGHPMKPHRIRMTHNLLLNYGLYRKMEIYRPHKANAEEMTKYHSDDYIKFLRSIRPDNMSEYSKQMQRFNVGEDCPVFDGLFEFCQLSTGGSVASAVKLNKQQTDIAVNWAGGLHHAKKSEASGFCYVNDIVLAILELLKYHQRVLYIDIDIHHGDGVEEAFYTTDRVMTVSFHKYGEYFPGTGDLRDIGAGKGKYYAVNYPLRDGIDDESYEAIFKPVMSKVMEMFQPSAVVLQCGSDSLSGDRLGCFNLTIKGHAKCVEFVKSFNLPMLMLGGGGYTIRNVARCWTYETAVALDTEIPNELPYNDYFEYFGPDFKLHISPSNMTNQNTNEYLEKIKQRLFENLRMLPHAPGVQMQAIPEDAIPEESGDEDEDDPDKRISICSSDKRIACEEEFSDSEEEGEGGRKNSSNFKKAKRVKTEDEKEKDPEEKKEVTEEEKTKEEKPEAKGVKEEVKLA

Test [1] addresses Histone deacetylase 4 (Homo sapiens, UniProt P56524). Put plainly: Inhibition of full length His6-tagged GST-fused recombinant human HDAC4 expressed in High5 insect cells using Ac-Lys-Tyr-Lys (e-acetyl)-AMC as substrate after 24 hrs by fluorescence assay. Type of test: cell-based.
Test [2] concerns the target Histone deacetylase 1 (Homo sapiens, UniProt Q13547). Put plainly: Inhibition of full length His6-tagged GST-fused recombinant human HDAC1 expressed in High5 insect cells using Ac-Lys-Tyr-Lys (e-acetyl)-AMC as substrate after 24 hrs by fluorescence assay. The class given is cell-based.

A word on the IC50: it is the concentration that gives 50% inhibition. As for `CC(C)Cc1sc(-c2nccs2)nc1C(=O)NCCCCC(=O)NO`, the IC50 in test [1] came to 185 nM; in test [2], 145 nM.
`O=C(CCCCNC(=O)c1nc(-c2nccs2)sc1C1CC1)NO` [BISTHIANOSTAT]: the IC50 in test [1] was determined as 158 nM.
